Data: paper PMC13466322
These are yes or no findings as the source states them, for the method shown. Binding seen in cells or lysates may run through a third protein. Some entries that bind do so weakly or less than the wild type.

The chains behind the UniProt entries cited, without tags or fusion partners. Where a name states a change or a piece, a line headed by the entry shows the natural chain unless it says otherwise. Residues count along the entry.
UniProt Q6UXG8, residues 35-535: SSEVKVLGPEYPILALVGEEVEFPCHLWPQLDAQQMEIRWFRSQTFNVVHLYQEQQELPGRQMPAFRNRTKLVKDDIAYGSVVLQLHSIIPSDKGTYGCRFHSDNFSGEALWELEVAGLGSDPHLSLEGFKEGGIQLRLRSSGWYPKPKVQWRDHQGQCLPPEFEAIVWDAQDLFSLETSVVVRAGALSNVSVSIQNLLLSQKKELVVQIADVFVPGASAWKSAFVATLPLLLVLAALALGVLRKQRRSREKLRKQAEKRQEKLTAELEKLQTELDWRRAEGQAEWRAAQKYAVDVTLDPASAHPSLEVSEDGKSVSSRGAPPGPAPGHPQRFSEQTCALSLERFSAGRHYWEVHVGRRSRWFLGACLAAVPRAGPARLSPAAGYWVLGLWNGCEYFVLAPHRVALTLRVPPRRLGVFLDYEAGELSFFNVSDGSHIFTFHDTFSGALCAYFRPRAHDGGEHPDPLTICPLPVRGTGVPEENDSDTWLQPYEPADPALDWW

Target: Butyrophilin-like 9 (BTNL9), wild type, FLAG-tagged or AM-tagged (human) (UniProt Q6UXG8)
Assay: co-IP; A549 and NCI-H460 cells co-infected with lentiviruses for AM-tagged and FLAG-tagged BTNL9, harvested at Day 3; 10 µg anti-FLAG antibody crosslinked to Protein A/G Plus Agarose; 500 µg pre-cleared lysate, overnight at 4 °C; AM-tagged BTNL9 detected by Western blot; IgG immunoprecipitation as negative control

Substance: Butyrophilin-like 9 (BTNL9), wild type, FLAG-tagged or AM-tagged (from UniProt Q6UXG8-1 35-535)
- binding: binds
